{"source": "PubChem BioAssay AID2685", "about": "(National Center for Advancing Translational Sciences (NCATS), 2010)", "test": "qHTS Assay for Lipid Storage Modulators in Drosophila S3 Cells;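 for cell number change: cells counted by Cell Tracker Red CMTPX staining in the red channel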", "settings": "BODIPY lipid droplet fluorescence, 18-24 h; for cell number change: measured here: cell count max response, cells fed with added oleic acid", "outline": "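Laser-scanning cytometry quantifies lipid droplet accumulation (500–530 nm total intensity; droplet/cell object ratio) in oleic acid-fed (400 uM added) Drosophila S3 cells treated with a concentration series. 20 uM Triacsin C defined 100% inhibition.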", "key": {"[1]": {"settings": "measured here: cell number channel AC50, cells fed with added oleic acid"}, "[2]": {"settings": "measured here: lipid fluorescence (Fed channel) AC50, cells fed with added oleic acid"}}, "note": "The other results are listed elsewhere or left out. Shown are side measurements of this screen, not its main read-out; they come without a call. The list favours compounds with an active or inconclusive main result. The note in brackets gives the kind of curve behind each potency; many fits are weak.", "data": [{"smiles": "CC(C)c1ccc(NC(=S)N(C)CCc2ccccn2)cc1", "values": [{"measurement": "cell number change", "result": -47.7, "unit": "%"}]}, {"smiles": "CCNC(=S)N1CCCC(c2nc3ccc(C)cc3[nH]2)C1", "note": "(stereo not drawn)", "values": [{"measurement": "cell number change", "result": 24.1, "unit": "%"}, {"measurement": "AC50", "setting": "[1]", "result": "0.731 µM [rising, full curve, poor fit]"}]}, {"smiles": "COc1ccccc1NC(=O)CN1CCCCCC1", "values": [{"measurement": "cell number change", "result": 41.1, "unit": "%"}]}, {"smiles": "COC(=O)c1cccnc1-n1c(=O)c2cccnc2n(CC(=O)Nc2ccc(Br)cc2)c1=O", "values": [{"measurement": "cell number change", "result": 70.1, "unit": "%"}]}, {"smiles": "O=C(Cc1c(F)cccc1Cl)NCC1CCCO1", "note": "(stereo not drawn)", "values": [{"measurement": "cell number change", "result": -24.5, "unit": "%"}, {"measurement": "AC50", "setting": "[2]", "result": "0.92 µM [falling, full curve, poor fit]"}]}, {"smiles": "CCOC(=O)Cc1cnc(NC(=O)CSc2nc(C)c(CC)c(=O)[nH]2)s1", "values": [{"measurement": "cell number change", "result": 18.7, "unit": "%"}, {"measurement": "AC50", "setting": "[1]", "result": "0.731 µM [falling, single point]"}, {"measurement": "AC50", "setting": "[2]", "result": "0.82 µM [falling, single point]"}]}, {"smiles": "O=C(Nc1ccc2c(c1)OCO2)O[C@@H]1C[C@H]2CCCC(=O)N3CC[C@@H](C1)[C@@H]23", "values": [{"measurement": "cell number change", "result": 22.8, "unit": "%"}]}, {"smiles": "Cc1cc(NC(=S)NC(=O)c2ccccc2)ccc1-c1cc2ccccc2oc1=O", "values": [{"measurement": "cell number change", "result": 11.1, "unit": "%"}, {"measurement": "AC50", "setting": "[1]", "result": "0.92 µM [rising, full curve, poor fit]"}, {"measurement": "AC50", "setting": "[2]", "result": "0.259 µM [rising, full curve, poor fit]"}]}, {"smiles": "O=C(NCCC1=CCCCC1)C(=O)NCC1OCCCN1S(=O)(=O)c1ccc(F)cc1", "note": "(stereo not drawn)", "values": [{"measurement": "cell number change", "result": 42.3, "unit": "%"}, {"measurement": "AC50", "setting": "[2]", "result": "0.731 µM [falling, single point]"}]}, {"smiles": "COC(=O)CC1C(=O)NCCN1C(=O)c1c(F)cccc1F", "note": "(stereo not drawn)", "values": [{"measurement": "cell number change", "result": -17.1, "unit": "%"}, {"measurement": "AC50", "setting": "[2]", "result": "6.51 µM [rising, single point]"}]}, {"smiles": "NC(=O)C1CCN(C(=O)c2ccc3c(=O)n(Cc4cccc(Br)c4)c(=S)[nH]c3c2)CC1", "values": [{"measurement": "cell number change", "result": 9.4, "unit": "%"}, {"measurement": "AC50", "setting": "[2]", "result": "29.1 µM [falling, single point]"}]}, {"smiles": "CC[C@]1(c2ccccc2)C(=O)N(C(=O)OC)N1C(=O)OC", "values": [{"measurement": "cell number change", "result": -0.599, "unit": "%"}, {"measurement": "AC50", "setting": "[2]", "result": "23.1 µM [falling, single point]"}]}, {"smiles": "Cc1ccc(S(=O)(=O)N2CCC(C(=O)Nc3ccc(C(C)C)cc3)CC2)cc1", "values": [{"measurement": "cell number change", "result": -18.2, "unit": "%"}, {"measurement": "AC50", "setting": "[2]", "result": "1.16 µM [rising, full curve, poor fit]"}]}, {"smiles": "NC(=O)C1(C(N)=O)OC1c1ccc(Cl)c(Cl)c1", "note": "(stereo not drawn)", "values": [{"measurement": "cell number change", "result": -27.2, "unit": "%"}, {"measurement": "AC50", "setting": "[2]", "result": "0.651 µM [falling, full curve]"}]}, {"smiles": "C1CC1Cc1noc(CN2CCN(CC3CC3)CC2)n1", "values": [{"measurement": "cell number change", "result": -11.8, "unit": "%"}, {"measurement": "AC50", "setting": "[2]", "result": "6.51 µM [falling, single point]"}]}, {"smiles": "Cc1ccc(/C=N/NC(=O)c2nnn(-c3nonc3N)c2C(C)C)s1", "values": [{"measurement": "cell number change", "result": 6.6, "unit": "%"}, {"measurement": "AC50", "setting": "[2]", "result": "0.731 µM [rising, single point]"}]}, {"smiles": "CN(C)CCCN(C(=O)c1ccc([N+](=O)[O-])o1)c1nc2cc3c(cc2s1)OCO3", "values": [{"measurement": "cell number change", "result": 11.4, "unit": "%"}, {"measurement": "AC50", "setting": "[2]", "result": "2.06 µM [rising, partial curve, poor fit]"}]}, {"smiles": "N#C/C(=C(/O)COc1ccccc1)c1nc2ccccc2s1", "values": [{"measurement": "cell number change", "result": -13.2, "unit": "%"}, {"measurement": "AC50", "setting": "[2]", "result": "29.1 µM [falling, partial curve, poor fit]"}]}, {"smiles": "Cc1cc(C)c(S(=O)(=O)Nc2cccc(-n3cnnn3)c2)c(C)c1", "values": [{"measurement": "cell number change", "result": -16.5, "unit": "%"}, {"measurement": "AC50", "setting": "[2]", "result": "6.51 µM [falling, single point]"}]}, {"smiles": "Cc1ccc(NC(=O)COC(=O)CNC(=O)c2ccc(Br)cc2)c(C)c1", "values": [{"measurement": "cell number change", "result": 3.38, "unit": "%"}, {"measurement": "AC50", "setting": "[2]", "result": "0.731 µM [falling, single point]"}]}, {"smiles": "O=C(Oc1ccccc1)c1cccc2cccnc12", "values": [{"measurement": "cell number change", "result": -1.66, "unit": "%"}, {"measurement": "AC50", "setting": "[2]", "result": "20.6 µM [falling, single point]"}]}, {"smiles": "O=C(Nc1ccccc1C(=O)NCc1ccco1)c1ccccc1", "values": [{"measurement": "cell number change", "result": 21.9, "unit": "%"}, {"measurement": "AC50", "setting": "[2]", "result": "2.06 µM [falling, partial curve]"}]}, {"smiles": "CC(C)c1ccc(N(CC(=O)NCC2CCCO2)C(=O)CCC(=O)Nc2nccs2)cc1", "note": "(stereo not drawn)", "values": [{"measurement": "cell number change", "result": 13.2, "unit": "%"}]}, {"smiles": "CN1CCN(C(=O)c2ccc(CNS(=O)(=O)c3ccc(F)c(Cl)c3)cc2)CC1", "values": [{"measurement": "cell number change", "result": 30, "unit": "%"}, {"measurement": "AC50", "setting": "[1]", "result": "29.1 µM [rising, single point]"}]}, {"smiles": "CC(=O)Oc1ccc(C(=O)Nc2nnc(C)s2)cc1", "values": [{"measurement": "cell number change", "result": 7.98, "unit": "%"}, {"measurement": "AC50", "setting": "[2]", "result": "0.00651 µM [rising, full curve, poor fit]"}]}, {"smiles": "Cc1ccnc(N2CCC(C(=O)NCc3ccc(F)cc3)CC2)n1", "values": [{"measurement": "cell number change", "result": -1.93, "unit": "%"}, {"measurement": "AC50", "setting": "[2]", "result": "0.411 µM [falling, single point]"}]}, {"smiles": "CC(NC(=O)c1ccco1)C(c1cccs1)N1CCN(c2ccc(F)cc2)CC1", "note": "(stereo not drawn)", "values": [{"measurement": "cell number change", "result": -1.37, "unit": "%"}, {"measurement": "AC50", "setting": "[1]", "result": "2.31 µM [falling, partial curve]"}]}, {"smiles": "COC(=O)c1sccc1NC(=O)Nc1cccc([N+](=O)[O-])c1", "values": [{"measurement": "cell number change", "result": -41.1, "unit": "%"}, {"measurement": "AC50", "setting": "[1]", "result": "23.1 µM [falling, single point]"}, {"measurement": "AC50", "setting": "[2]", "result": "29.1 µM [falling, single point]"}]}, {"smiles": "O=C1c2ccc3c4c(ccc(c24)C(=O)N1NC(=O)C(F)(F)F)CC3", "values": [{"measurement": "cell number change", "result": 144, "unit": "%"}, {"measurement": "AC50", "setting": "[1]", "result": "9.2 µM [rising, partial curve]"}, {"measurement": "AC50", "setting": "[2]", "result": "29.1 µM [rising, partial curve]"}]}, {"smiles": "Nc1nonc1-n1nnc(C(=O)N/N=C/c2ccccc2)c1CSc1ccc(Cl)cc1", "values": [{"measurement": "cell number change", "result": 22.6, "unit": "%"}, {"measurement": "AC50", "setting": "[2]", "result": "29.1 µM [rising, single point]"}]}, {"smiles": "Cc1[nH]n(C(C)(C)C)c(=O)c1Sc1ccccc1", "values": [{"measurement": "cell number change", "result": 59.3, "unit": "%"}, {"measurement": "AC50", "setting": "[1]", "result": "5.17 µM [rising, full curve]"}, {"measurement": "AC50", "setting": "[2]", "result": "0.82 µM [rising, single point]"}]}, {"smiles": "S=C(Nc1cccc(Cl)c1)Nc1cccc2cnccc12", "values": [{"measurement": "cell number change", "result": -2.12, "unit": "%"}, {"measurement": "AC50", "setting": "[2]", "result": "0.146 µM [rising, full curve, poor fit]"}]}, {"smiles": "NCCCn1c(C(=O)c2cc(Cl)c(N)c(Cl)c2)c2ccc(C(F)(F)F)cc2[n+]1[O-]", "values": [{"measurement": "cell number change", "result": -30.2, "unit": "%"}, {"measurement": "AC50", "setting": "[1]", "result": "3.26 µM [falling, full curve, poor fit]"}, {"measurement": "AC50", "setting": "[2]", "result": "29.1 µM [falling, single point]"}]}, {"smiles": "O=C(/C=C/c1ccccc1)/C=C/c1ccccc1", "values": [{"measurement": "cell number change", "result": -30.5, "unit": "%"}, {"measurement": "AC50", "setting": "[1]", "result": "9.2 µM [falling, partial curve]"}, {"measurement": "AC50", "setting": "[2]", "result": "18.4 µM [falling, single point]"}]}, {"smiles": "COc1ccc(Nc2n[nH]c(C)c2[N+](=O)[O-])cc1", "values": [{"measurement": "cell number change", "result": 40.7, "unit": "%"}]}, {"smiles": "Cc1cc(C)n(-c2ccc(C(=O)Nc3ccc(S(=O)(=O)NCc4ccco4)cc3)cc2)n1", "values": [{"measurement": "cell number change", "result": -64.4, "unit": "%"}, {"measurement": "AC50", "setting": "[1]", "result": "29.1 µM [falling, single point]"}]}, {"smiles": "Cc1ccc(NC(=O)COc2ccccc2C(=O)NCc2ccccc2)cc1", "values": [{"measurement": "cell number change", "result": 4.63, "unit": "%"}, {"measurement": "AC50", "setting": "[1]", "result": "4.61 µM [falling, single point]"}, {"measurement": "AC50", "setting": "[2]", "result": "6.51 µM [falling, single point]"}]}, {"smiles": "CCN(CC)S(=O)(=O)c1cc(C(=O)OCC(=O)Nc2cccc(Br)c2)ccc1F", "values": [{"measurement": "cell number change", "result": -18.5, "unit": "%"}, {"measurement": "AC50", "setting": "[2]", "result": "0.92 µM [falling, full curve]"}]}]}
